Binding data for two substances are collected here from paper doi:10.1101/2022.02.03.478926.

Sequences of proteins named here, by UniProt entry; tags and fusion partners are left off. Residues count along the entry.
UniProt P12023, residues 18-770: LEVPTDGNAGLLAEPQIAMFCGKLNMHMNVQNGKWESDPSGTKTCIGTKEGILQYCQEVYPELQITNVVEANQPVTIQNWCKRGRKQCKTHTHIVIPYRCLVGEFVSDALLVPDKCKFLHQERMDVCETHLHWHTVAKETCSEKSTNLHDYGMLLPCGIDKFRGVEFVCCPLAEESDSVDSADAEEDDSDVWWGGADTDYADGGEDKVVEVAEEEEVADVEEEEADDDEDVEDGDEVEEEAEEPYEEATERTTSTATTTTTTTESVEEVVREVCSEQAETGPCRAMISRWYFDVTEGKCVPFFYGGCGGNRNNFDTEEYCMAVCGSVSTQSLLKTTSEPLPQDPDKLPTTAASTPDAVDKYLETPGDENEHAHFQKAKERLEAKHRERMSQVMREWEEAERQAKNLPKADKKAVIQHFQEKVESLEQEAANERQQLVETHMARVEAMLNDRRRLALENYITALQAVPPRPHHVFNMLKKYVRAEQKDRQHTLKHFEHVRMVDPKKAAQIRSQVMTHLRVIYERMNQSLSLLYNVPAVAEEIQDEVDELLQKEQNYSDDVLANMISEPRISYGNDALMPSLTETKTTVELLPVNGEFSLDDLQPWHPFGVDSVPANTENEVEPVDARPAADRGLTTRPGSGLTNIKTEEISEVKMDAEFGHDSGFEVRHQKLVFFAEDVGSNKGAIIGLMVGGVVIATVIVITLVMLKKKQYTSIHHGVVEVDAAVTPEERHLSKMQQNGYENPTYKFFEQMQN
UniProt P39087, residues 32-908: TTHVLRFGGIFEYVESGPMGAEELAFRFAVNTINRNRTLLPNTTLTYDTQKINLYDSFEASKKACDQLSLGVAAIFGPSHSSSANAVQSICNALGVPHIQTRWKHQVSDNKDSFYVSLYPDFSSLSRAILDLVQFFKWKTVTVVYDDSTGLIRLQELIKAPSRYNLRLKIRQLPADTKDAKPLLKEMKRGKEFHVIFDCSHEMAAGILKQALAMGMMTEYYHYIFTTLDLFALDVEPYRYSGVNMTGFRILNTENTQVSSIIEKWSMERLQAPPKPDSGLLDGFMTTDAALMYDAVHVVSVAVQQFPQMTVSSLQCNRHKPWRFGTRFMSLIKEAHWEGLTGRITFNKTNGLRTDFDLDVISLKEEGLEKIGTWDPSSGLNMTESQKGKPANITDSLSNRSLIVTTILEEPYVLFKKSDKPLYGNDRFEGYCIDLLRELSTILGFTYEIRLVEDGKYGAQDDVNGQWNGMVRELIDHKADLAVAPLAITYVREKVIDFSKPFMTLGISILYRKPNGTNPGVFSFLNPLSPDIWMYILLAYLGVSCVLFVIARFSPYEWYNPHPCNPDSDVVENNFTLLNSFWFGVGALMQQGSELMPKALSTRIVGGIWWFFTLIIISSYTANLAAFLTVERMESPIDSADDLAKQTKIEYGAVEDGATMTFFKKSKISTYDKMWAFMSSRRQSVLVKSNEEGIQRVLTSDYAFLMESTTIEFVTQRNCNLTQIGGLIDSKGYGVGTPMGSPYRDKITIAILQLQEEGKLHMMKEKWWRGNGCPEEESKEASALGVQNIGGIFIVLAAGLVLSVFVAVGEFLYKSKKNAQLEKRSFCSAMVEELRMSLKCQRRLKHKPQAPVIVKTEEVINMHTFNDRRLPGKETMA

Common to all, as to assay: co-IP
Test [1] concerns the target T1, GluK5 kainate receptor subunit (UniProt Q61626).
T1 sequence: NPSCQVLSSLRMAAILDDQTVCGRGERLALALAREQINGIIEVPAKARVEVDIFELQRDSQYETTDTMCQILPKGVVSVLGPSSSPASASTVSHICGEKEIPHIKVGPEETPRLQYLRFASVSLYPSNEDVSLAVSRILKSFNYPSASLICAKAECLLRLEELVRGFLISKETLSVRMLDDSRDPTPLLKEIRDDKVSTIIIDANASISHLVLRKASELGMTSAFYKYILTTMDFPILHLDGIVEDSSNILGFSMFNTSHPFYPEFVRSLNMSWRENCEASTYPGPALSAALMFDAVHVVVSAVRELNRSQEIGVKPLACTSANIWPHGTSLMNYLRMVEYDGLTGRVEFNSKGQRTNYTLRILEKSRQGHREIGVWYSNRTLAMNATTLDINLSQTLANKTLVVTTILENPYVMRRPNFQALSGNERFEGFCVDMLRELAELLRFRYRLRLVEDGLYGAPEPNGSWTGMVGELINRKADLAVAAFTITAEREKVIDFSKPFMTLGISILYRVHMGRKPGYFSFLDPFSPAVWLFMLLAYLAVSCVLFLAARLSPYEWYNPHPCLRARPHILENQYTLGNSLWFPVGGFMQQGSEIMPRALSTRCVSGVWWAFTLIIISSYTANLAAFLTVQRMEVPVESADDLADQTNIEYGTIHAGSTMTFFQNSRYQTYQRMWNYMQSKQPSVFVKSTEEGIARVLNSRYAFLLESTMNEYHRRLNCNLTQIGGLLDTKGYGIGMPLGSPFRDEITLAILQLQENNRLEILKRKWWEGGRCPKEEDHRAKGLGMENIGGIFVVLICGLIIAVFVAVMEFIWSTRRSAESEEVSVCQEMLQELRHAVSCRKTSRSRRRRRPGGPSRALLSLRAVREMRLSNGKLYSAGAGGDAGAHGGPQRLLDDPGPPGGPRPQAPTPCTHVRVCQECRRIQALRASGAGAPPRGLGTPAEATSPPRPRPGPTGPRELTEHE

Test [2] addresses full-length amyloid precursor protein (APP) (UniProt P12023).
In test [3] the target is GluK2 kainate receptor subunit (UniProt P39087).

Results are given in words; binding and its absence hold for the method and conditions named. Binding seen in cells or lysates may run through a third protein. Some binding calls cover weakened binding; strength is not graded here.

With “GluK2 kainate receptor subunit (from UniProt P39087 32-908)”, the binding entry in test [1] and in test [2] was “binds” each time.

Consider “full-length amyloid precursor protein (APP) (from UniProt P12023 18-770)”, for which the binding result in test [3] and in test [1] was “binds” throughout.
